Results from publication PMC8216470.

The chains behind the UniProt entries cited, without tags or fusion partners. Where a name states a change or a piece, a line headed by the entry shows the natural chain unless it says otherwise.
UniProt Q6PAT0: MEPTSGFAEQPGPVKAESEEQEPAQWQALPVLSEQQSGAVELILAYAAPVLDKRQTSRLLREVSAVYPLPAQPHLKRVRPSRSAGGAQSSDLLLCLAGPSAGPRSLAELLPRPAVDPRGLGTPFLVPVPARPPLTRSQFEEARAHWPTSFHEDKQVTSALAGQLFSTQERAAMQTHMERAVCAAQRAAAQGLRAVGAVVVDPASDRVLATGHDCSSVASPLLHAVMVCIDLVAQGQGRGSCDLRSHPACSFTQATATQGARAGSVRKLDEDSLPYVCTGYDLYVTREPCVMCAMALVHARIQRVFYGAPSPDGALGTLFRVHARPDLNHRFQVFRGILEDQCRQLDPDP
UniProt Q6P6J0: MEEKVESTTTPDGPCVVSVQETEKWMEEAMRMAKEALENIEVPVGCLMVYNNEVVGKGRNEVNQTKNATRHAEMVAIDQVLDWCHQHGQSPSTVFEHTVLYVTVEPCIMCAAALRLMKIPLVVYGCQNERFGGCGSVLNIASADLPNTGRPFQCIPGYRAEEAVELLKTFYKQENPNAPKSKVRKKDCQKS

Columns and labels:
[1] = molecular target: mouse ADAT3-V128I (mouse) (UniProt Q6PAT0); experiment: co-expression and co-purification; untagged ADAT2 co-expressed in E. coli BL21(DE3) with His-thioredoxin-ADAT3 (WT or mutant); Talon resin, release by 3C protease overnight at 4°C, HiTrap Q ion exchange, Superdex 200 in 10 mM Tris HCl pH 8.0, 200 mM NaCl, 0.5 mM TCEP
[2] = molecular target: mouse ADAT3-V128M (mouse) (UniProt Q6PAT0); experiment: as above
[3] = molecular target: mouse ADAT3-V128L (mouse) (UniProt Q6PAT0); experiment: as above
[4] = molecular target: mouse ADAT3-Δloop (mouse) (UniProt Q6PAT0); experiment: crystal structure; co-expressed, purified complex at 12 mg/ml, sitting drop vapor diffusion; two crystal forms of ADAT2/ADAT3-Δloop (2.1 and 3.0 Å), V128L complex at 2.0 Å; both purified
[5] = molecular target: mouse ADAT3-V128L (mouse) (UniProt Q6PAT0); experiment: as above

binding [1]: binds
binding [2]: binds
binding [3]: binds
binding [4]: binds
binding [5]: binds
Substance: mouse ADAT2 (from UniProt Q6P6J0 1-191) (enzyme)

No constants are given. Whether binding was seen depends on the method and setting. Binding can be weak; no strength is given. For some assays here: Binding seen in cells or lysates may run through a third protein.
